# Reference: the supplement of paper PMC5949888
# Most values lie at the floor of the assay. Slopes are relative: functional sequences can read slightly below zero.
# Tested on: Saccharomyces cerevisiae PS128 hsf1 delta, HSF1(1-493) fusion
# Test: growth estimate (transactivation domain function in HSF1 fusion, heat-shock survival) (a.u. (slope of normalised read count over time)); higher = stronger growth at 37°C, i.e. more transactivation activity
# Settings: library: random library
row,Substance,growth estimate
1,VWDQIHVLVLVVLVDPDG,< -0.25
2,VWDRRHEQSGICT,< -0.25
3,VWEFLGWAINQIIGHGFACM,< -0.25
4,VWGSRVSQITACWC,< -0.25
5,VWGVGERRTCLDVRRKVLTH,< -0.25
6,VWH,< -0.25
7,VWICSVEHVP,< -0.25
8,VWIRFTRVSRH,-0.243
9,VWIVHECLRP,-0.245
10,VWIYGQ,-0.246
11,VWKNRGVFVAEQLAKSEQAV,< -0.25
12,VWLCWYTAQYKVMREA,-0.178
13,VWLHWRPPETLGIGLV,< -0.25
14,VWSQGRGISNS,< -0.25
15,VWV,< -0.25
16,VWVGTRSEHRGTVIGVTHFA,< -0.25
17,VWVLHRIRAYCKTYNLG,< -0.25
18,VWVSESVD,< -0.25
19,VYAELDRNFPTVYPI,< -0.25
20,VYAHHFDSNIWPGQKLLGAC,< -0.25
21,VYGNEYG,< -0.25
22,VYKSPEVSEKERGTQ,< -0.25
23,VYPSR,< -0.25
24,VYPVGR,< -0.25
25,VYQWSHYGVVSSVVVFGTSV,< -0.25
26,VYRCMVSLAGTRIVCWRRGF,< -0.25

row,Substance,growth estimate
1,VYRISVEPTNCRQEEIITVQ,< -0.25
2,VYSEVLPIPAYCLSVNGYSG,< -0.25
3,VYSTAQYRDIWSTIMSEDPA,< -0.25
4,VYTTRLCLSYRVL,< -0.25
5,VYVYNGASDLGEI,< -0.25
6,WACVGCKAASYELDQETRLL,< -0.25
7,WAEIEWRINHRSCDVLFACV,-0.243
8,WAEWGGIRGPHQPFSKNPTG,< -0.25
9,WAGVERSMLEGRGGLSS,< -0.25
10,WAQQVNELSLCSNFSRVLDV,-0.248
11,WARYLLRAIGLVAKVT,< -0.25
12,WASVEDSVPCHDDV,< -0.25
13,WATRQVGRTHETGNSGLVNH,< -0.25
14,WAV,< -0.25
15,WAWMASVIYRSRAQHSGYCA,< -0.25
16,WAY,< -0.25
17,WCDLVVAVYRKFELSLDFLK,< -0.25
18,WCEGI,< -0.25
19,WCHSCTKINYEYPAYCGAAR,< -0.25
20,WCIFE,< -0.25
21,WCLRCLLNVGSKIC,< -0.25
22,WCSGVTVVTYCEWNVVISTV,< -0.25
23,WCT,< -0.25
24,WCYRTRIH,< -0.25
25,WDDWASVIE,0.892
26,WDGSCIALGGGAISVGSGGA,< -0.25

row,Substance,growth estimate
1,WDGTRGRTAGNWIPVLCTTA,< -0.25
2,WDLFQRIWSTDVSVGPHPCD,-0.243
3,WDRGESVRVVPATCLIIFVR,< -0.25
4,WDRGFPKREEKKLL,< -0.25
5,WEDGMFPCPMDNV,-0.246
6,WEGGWYERWGT,< -0.25
7,WEGIPPVSETINRKFLRREA,< -0.25
8,WEGL,< -0.25
9,WEGSQLGSNVLISTSCGRTA,< -0.25
10,WERCTS,< -0.25
11,WERIG,-0.245
12,WERVSGRGCIDRSHGTTTLS,< -0.25
13,WESRRRYTRTDIGSALLEG,< -0.25
14,WESSNDMEG,< -0.25
15,WFECRIIR,< -0.25
16,WFGLQARHCKPYRWPIWAPT,< -0.25
17,WFGQVRD,< -0.25
18,WFIAHRRRSTRAVGSTYIRF,< -0.25
19,WFLLLQGVSQTSPWPTPCVR,< -0.25
20,WFLRVSINREIQI,< -0.25
21,WFLTKFGRGAFERNRYMNGF,< -0.25
22,WFMLIT,< -0.25
23,WFS,< -0.25
24,WFSEPKLRGQVVLTSLWARH,< -0.25
25,WGAGDA,< -0.25
26,WGGAGHCDWNFQSISGA,-0.162

row,Substance,growth estimate
1,WGGKCSASWAHKTPVP,< -0.25
2,WGGVEWRGFRI,< -0.25
3,WGHAFGRSSSARASSKM,< -0.25
4,WGHTIHHQQILRIVAVVV,< -0.25
5,WGHWRLCQRPN,< -0.25
6,WGIPDDTGFSTLSRRLPCYP,< -0.25
7,WGPVGPPARDAFCFSGVQRP,< -0.25
8,WGQAARSTHTGWTA,< -0.25
9,WGQNRRAIHIRHRADA,< -0.25
10,WGQSPRIAVSQSSEDTHRHG,< -0.25
11,WGSLCLDQGSGGPVAEANPR,< -0.25
12,WGTFEAIGERSDLELTSDQR,< -0.25
13,WGTRDMCCQCPVLG,< -0.25
14,WGTTGKAKIFS,< -0.25
15,WGTVTGQ,< -0.25
16,WHGVRA,< -0.25
17,WHLCLSQRLDLTLL,< -0.25
18,WHTCVA,< -0.25
19,WIA,< -0.25
20,WIAQYCILCRAPL,< -0.25
21,WIGRALC,< -0.25
22,WIGVESRWVGWIQHGRRARK,< -0.25
23,WIHSSTRHWRSVNAGADTAH,< -0.25
24,WINHDLRS,< -0.25
25,WIRGRIEPWWMGVNV,< -0.25
26,WIS,< -0.25

# For convenience, part of the list above.
row,Substance,growth estimate
3,WGHAFGRSSSARASSKM,< -0.25
4,WGHTIHHQQILRIVAVVV,< -0.25
5,WGHWRLCQRPN,< -0.25

# Later entries

row,Substance,growth estimate
1,WKAFTFSIG,< -0.25
2,WKFVCPLWPKVKGAPPLDIP,< -0.25
3,WKQPTRADRSAYCATTGLGT,< -0.25
4,WKQVHPTVLEGRVTTYVDEG,< -0.25
5,WKRSTAPPAKARKKPGYRPH,< -0.25
6,WKTH,< -0.25
7,WKTPGSCLGSL,< -0.25
8,WKV,< -0.25
9,WKVRINRPHVRAESCMRPPR,< -0.25
10,WLC,< -0.25
11,WLDQSNPECVFGISVFAVAR,< -0.25
12,WLEMTGDPAWAALRQSTVIG,< -0.25
13,WLESHRSREVSHFSDVPIRG,< -0.25
14,WLFFGD,0.108
15,WLGED,< -0.25
16,WLGVSAPGEVHILTGEMSRR,< -0.25
17,WLKTQGGAGTAIRGLWLTFK,< -0.25
18,WLLFLFIDVFFTGHGRHSEV,< -0.25
19,WLLNSHGLIFALYAGEKWH,< -0.25
20,WLLTICVHLSR,< -0.25
21,WLMISIVCEA,< -0.25
22,WLMRQM,< -0.25
23,WLPVIC,< -0.25
24,WLQKSLK,< -0.25
25,WLRNYVGDRKQQ,< -0.25
26,WLRYSFKSGNIEIGPYNGQA,< -0.25

row,Substance,growth estimate
1,WLSNADTF,< -0.25
2,WLSS,< -0.25
3,WLVPYE,< -0.25
4,WLVRIRGWAV,< -0.25
5,WLVRVLRRVHFQRVNPDAFL,< -0.25
6,WLYAFADAQENIVASGNVCN,-0.231
7,WLYG,< -0.25
8,WMH,-0.245
9,WMTEVESTFPRRALILYLPN,< -0.25
10,WMVF,< -0.25
11,WNDLH,< -0.25
12,WNDPTDLDVLLTGVATLLIA,< -0.25
13,WNDVLLE,-0.228
14,WNGKTLIMGALRSTWEDVPI,< -0.25
15,WNI,< -0.25
16,WNQAFARERSVKKRAVYELT,< -0.25
17,WNQIRSDGVSFRLRTCACGM,< -0.25
18,WNSAIGKSRMSWWAQRPSQT,< -0.25
19,WNSV,< -0.25
20,WNVTRAS,< -0.25
21,WPIICDSKVN,< -0.25
22,WPLDLRRY,< -0.25
23,WPLMRA,< -0.25
24,WPPKWEGVHR,< -0.25
25,WPRPGKATQVRLPTHRLLLG,< -0.25
26,WPRPLYTRSRKPSRTRSPPR,< -0.25

row,Substance,growth estimate
1,WPYHSLEPSE,< -0.25
2,WQELNICARLGQKKPRSSAE,< -0.25
3,WQERRGH,< -0.25
4,WQIPGTRGCVIAGC,< -0.25
5,WQLRGAFVFP,< -0.25
6,WQLSPVEHTAPRVRFSVSHP,< -0.25
7,WQLTPAGPHALSTWCRPSER,< -0.25
8,WQLVLTLDGKRSRRSFQGPK,< -0.25
9,WQPSAVSSWRDRTWLEKGYR,< -0.25
10,WQR,< -0.25
11,WQRVHEE,< -0.25
12,WRFLWSGSMD,-0.219
13,WRGERHRKF,< -0.25
14,WRGMGVLRAELFAN,< -0.25
15,WRGNEVASRTVPLMGLLPRC,< -0.25
16,WRGRNARNNNITLL,< -0.25
17,WRGVPSDSRNPI,< -0.25
18,WRGVQGAADKYLRLKFVRMF,< -0.25
19,WRLINSLDSGADVDAGGPAL,< -0.25
20,WRSGATLDTSIPISIVANSA,< -0.25
21,WRTCDSYHRQPPRIPSCGQT,-0.246
22,WRVPTRARLQ,-0.245
23,WRVSAQHM,< -0.25
24,WSARPSPEGWPRDLQ,< -0.25
25,WSATLIV,< -0.25
26,WSCKRTAPRRLLIPTKSKPP,< -0.25

row,Substance,growth estimate
1,WSDDRPTHRSHSYPWGIRGP,< -0.25
2,WSER,< -0.25
3,WSESPAAKARNRVRGLKKGA,< -0.25
4,WSGAIEI,< -0.25
5,WSGWFSNRKPA,< -0.25
6,WSH,-0.236
7,WSLGNLS,< -0.25
8,WSLPWDNS,< -0.25
9,WSNGEALQWRNVRGRSVHDY,< -0.25
10,WSNRNTTMLRVIIVGSTRGN,< -0.25
11,WSQQDLDGRKRPEADTWQIR,< -0.25
12,WSR,< -0.25
13,WSRCSGHPLFYGSYSRLHRS,< -0.25
14,WSTAIARCSG,< -0.25
15,WSTVEPVSSKGPVAARTFAG,< -0.25
16,WSTWIIASSRNGQVYHVIIE,< -0.25
17,WSVASSVATMG,< -0.25
18,WSVPMTSIQTR,< -0.25
19,WTADSGICRLVGWDTPRERP,< -0.25
20,WTCKTSASAGKPFWDVSVRL,< -0.25
21,WTCLGREYQAVNRCPQPRGD,< -0.25
22,WTE,< -0.25
23,WTGKRQTRYCLR,< -0.25

# 6 entries drawn at random from the list so far:
row,Substance,growth estimate
2,WSER,< -0.25
22,WTE,< -0.25
9,WSNGEALQWRNVRGRSVHDY,< -0.25
23,WTGKRQTRYCLR,< -0.25
5,WSGWFSNRKPA,< -0.25
10,WSNRNTTMLRVIIVGSTRGN,< -0.25

# Some values from the list:
# Under growth estimate, WRLINSLDSGADVDAGGPAL shows < -0.25
# Under growth estimate, WLGED shows < -0.25
